Results from PubChem BioAssay AID504834 (National Center for Advancing Translational Sciences (NCATS), 2011).
The campaign covered roughly 320,000 compounds. About 22,000 (6.9%) were called active. The inconclusive results got no clear call from the source; some entries with a clear call stand among them for comparison. Calls follow the shape of the dose curve; as a rule, active = well fitted inhibition curve with a large enough effect; inconclusive = small, poorly fitted or top-dose-only effect, or another doubt; inactive = no such curve, though single readings can be large or run the other way. Potencies of inconclusive entries are doubtful fits and often do not repeat.

Assay: Primary qHTS for delayed death inhibitors of the malarial parasite plastid, 96 hour incubation
Settings: P. falciparum luciferase reporter growth; series mostly up to 28.7 µM; activity change, negative = inhibition: at the top concentration
How it was run: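 Luminescence readout: decreased luciferase signal marks inhibited growth of reporter-expressing P. falciparum in infected red cells (2% hematocrit, 0.05% parasitemia final), exposed to compound two generations (96 h, 37 C, 5% CO2).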
% is scaled to controls: 0 for no effect and ±100 for the full control effect; potency is read from the fitted curve at half-maximal effect.

Compound	Potency	activity change, negative = inhibition
COc1ccc(/C=N/n2c(C)nc3c([nH]c4ccccc43)c2=O)cc1CN1CCCC(C)(C)C1	active: 5.22 µM	
CCN(CC)S(=O)(=O)c1ccc(NN=C2CCN(C)CC2)c([N+](=O)[O-])c1	inconclusive: 18.5 µM [inhibitor, partial curve, poor fit]	
N/C(=N\c1nc2ccccc2o1)NC(=O)c1ccccc1Br		inactive: 28.8%
CSc1ccccc1NC(=O)COC(=O)Cn1cc(C(F)(F)F)ccc1=O		inactive: 3.23%
Cc1cccc(NC(=O)NC2(C)CCS(=O)(=O)C2)c1 (stereo not drawn)		inactive: 18.6%
O=C(CSc1nnc(-c2ccccc2)n1-c1ccccc1)c1cccs1		inactive: 36.9%
Cc1cccc(NC(=O)CSc2n[nH]c(-c3ccncc3)n2)c1C		inactive: 50.2%
O=C(O)/C=C/C(=O)NNC(=O)c1cc(-c2ccccc2)n[nH]1		inactive: -12.8%
O=C(Cc1cccs1)NC(c1ccccc1)c1ccccc1	inconclusive: 18.5 µM [inhibitor, single point]	
CSc1cnn(Cc2ccccc2)c(=O)c1SCc1ccccc1	inconclusive: 10.4 µM [inhibitor, partial curve, poor fit]	
COC(=O)c1ccccc1NC(=O)c1cc2ncc(Br)cn2n1		inactive: 19.7%
Cc1ccc(N(C(=O)c2csnn2)C(C(=O)NC2CCCCC2)c2ccccn2)c(C)c1 (stereo not drawn)		inactive: 9.06%
O=C(Cn1nnc2c(cnn2-c2ccc(F)cc2)c1=O)Nc1ccccc1C(F)(F)F		inactive: 23.9%
Cc1cc(Cl)ccc1OCc1nnc2n1CCCCC2		inactive: 16.9%
Cc1c(NC(=O)C2(C)CCCCC2)c(=O)n(-c2ccccc2)n1C		inactive: -6.7%
CC(=O)c1cccc(CN2CCCC(N3CCN(c4ccccc4F)CC3)C2)c1 (stereo not drawn)	inconclusive: 18.5 µM [inhibitor, single point]	
CCc1ccc(C2c3[nH]c4ccccc4c3CCN2C(=O)CN2CCN(CC)CC2)cc1 (stereo not drawn)	inconclusive: 18.5 µM [inhibitor, single point]	
Cc1onc(-c2c(F)cccc2Cl)c1C(=O)NC(=S)NC1CCSC1=O (stereo not drawn)		inactive: -7.36%
CC(=O)c1c(N2CCCC2)nc(=S)n(-c2ccccc2)c1C	inconclusive: 10.4 µM [inhibitor, partial curve]	
COc1cc2[nH]c(=S)n(CCN3CCOCC3)c(=O)c2cc1OC	inconclusive: 14.7 µM [inhibitor, single point]	
COc1ccc(C(=O)C2CCN(C(=S)NCCc3ccccc3)CC2)cc1	inconclusive: 18.5 µM [inhibitor, single point]	
CC(CN(C)C)CN1c2ccccc2Sc2ccccc21 (stereo not drawn)	inconclusive: 18.5 µM [inhibitor, single point]	
CCC1=C(OC(=O)N(CC)CC)N2C(=O)OC(=NCCc3c[nH]c4ccccc34)[C@]2(C)[C@H]2C1=CC[C@H]1C(=O)N(C)C(=O)[C@H]12	inconclusive: 1.65 µM [inhibitor, partial curve, poor fit]	
CCN(C(=O)CSc1nnc(-c2ccc3c(c2)OCO3)o1)C1CCS(=O)(=O)C1 (stereo not drawn)		inactive: -28.3%

4 structures out of the list, sorted by molar mass, largest number first:
Compound	Potency	activity change, negative = inhibition
Cc1ccc(N(C(=O)c2csnn2)C(C(=O)NC2CCCCC2)c2ccccn2)c(C)c1 (stereo not drawn)		inactive: 9.06%
CSc1ccccc1NC(=O)COC(=O)Cn1cc(C(F)(F)F)ccc1=O		inactive: 3.23%
CC(=O)c1cccc(CN2CCCC(N3CCN(c4ccccc4F)CC3)C2)c1 (stereo not drawn)	inconclusive: 18.5 µM [inhibitor, single point]	
CCN(CC)S(=O)(=O)c1ccc(NN=C2CCN(C)CC2)c([N+](=O)[O-])c1	inconclusive: 18.5 µM [inhibitor, partial curve, poor fit]	

(list continues)

Compound	Potency	activity change, negative = inhibition
Cc1ccc(C(O)(c2ccccc2)c2ccccc2C(C)N(C)C)c(C)c1 (stereo not drawn)	inconclusive: 13.1 µM [inhibitor, partial curve, poor fit]	
CCN(CC)c1ccc(NC(=O)CCNS(=O)(=O)c2ccc3c(c2)CCC(=O)N3)c(C)c1		inactive: 54.6%
O=C(NN1CCCCC1)c1cnn2c(C(F)F)cc(-c3ccccc3)nc12		inactive: 11.8%
CCOC(=O)C1=C(CC)Nc2ccccc2N=C1NC(=O)c1ccc(S(=O)(=O)N2CCOCC2)cc1	active: 14.7 µM	
CC(=O)c1ccc(OCC(=O)Nc2ccccc2N2CCCC2)cc1	inconclusive: 18.5 µM [inhibitor, partial curve, poor fit]	
CC1CCN(C(=O)COc2coc(CN3CCc4ccccc43)cc2=O)CC1	inconclusive: 4.65 µM [inhibitor, partial curve, poor fit]	
COCCN1C(=O)N[C@H](c2cccc(C(F)(F)F)c2)C(C(=O)OC)=C1C		inactive: -23.7%
O=C(C1CC(=O)N(C2CCCC2)C1)N1CCN(c2cccc(C(F)(F)F)c2)CC1 (stereo not drawn)		inactive: -14.5%
Cc1cc(NS(=O)(=O)c2ccc(NC(=O)/C=C/c3cccc(Cl)c3)cc2)no1	inconclusive: 14.7 µM [inhibitor, partial curve, poor fit]	
COc1ccc(N(C(=O)Cn2nnc(-c3ccc(C)o3)n2)C(C(=O)NC2CCCC2)c2ccncc2)cc1 (stereo not drawn)		inactive: 2.23%
CN(C)c1ccc(N=Nc2ccccc2C(=O)OCC(=O)N2CCCC2)cc1	active: 13.1 µM	
Cc1ccc(N2C(=O)CC(Sc3nc4ccccc4o3)C2=O)cc1Cl (stereo not drawn)		inactive: 0.958%
Cc1ccccc1-c1nc2sc3c(c2c(=O)o1)CCC3		inactive: -4.38%
O=C(COc1ccc(S(=O)(=O)N2CCOCC2)cc1Cl)NCc1ccccn1	inconclusive: 18.5 µM [inhibitor, single point]	
CCN1CCN(C(=O)c2cn(CC)c3ccc(S(=O)(=O)N(C)C)cc3c2=O)CC1	inconclusive: 11.7 µM [inhibitor, partial curve, poor fit]	
Cc1cccc(NC(=O)c2cc(S(=O)(=O)N3CCc4ccccc43)cn2C)c1	inconclusive: 18.5 µM [inhibitor, single point]	
COc1cccc(OCc2cc(C(=O)NCc3ccc4c(c3)OCO4)no2)c1		inactive: 85.6%
Cc1ccccc1NS(=O)(=O)c1ccc(OCC(=O)N2CCCC2)cc1	inconclusive: 9.28 µM [inhibitor, partial curve, poor fit]	
Cc1c(-c2csc(N)n2)cnn1C	inconclusive: 14.7 µM [inhibitor, partial curve, poor fit]	
COc1ccc(N2CC(C(=O)NCc3n[nH]c(=O)c4ccccc34)CC2=O)cc1 (stereo not drawn)		inactive: 0.182%
Cc1ccc(Cn2cc(C(=O)c3ccc(F)cc3)c(=O)c3cc4c(cc32)OCCO4)cc1	active: 11.7 µM	
COc1cccc(CN2CCNC(=O)C2CC(=O)N2CCOc3ccccc3C2)c1OC (stereo not drawn)		inactive: 51.8%
CC/C(=N\NC(=O)CNC(=O)/C=C/c1ccco1)c1ccccc1		inactive: -1.01%
CCC1(c2ccccc2)C(=O)N(C)C(=O)N(C)C1=O		inactive: 0.85%
